Results reported in publication PMC6065180, “An allosteric propofol-binding site in kinesin disrupts kinesin-mediated processive movement on microtubules” (The Journal of Biological Chemistry, 2018).
Results are given in words; binding and its absence hold for the method and conditions named. Some entries that bind do so weakly or less than the wild type.

By UniProt entry, the sequences of proteins in these tests, tags left out. Where a name states a change or a piece, a line headed by the entry shows the natural chain unless it says otherwise.
UniProt P81948: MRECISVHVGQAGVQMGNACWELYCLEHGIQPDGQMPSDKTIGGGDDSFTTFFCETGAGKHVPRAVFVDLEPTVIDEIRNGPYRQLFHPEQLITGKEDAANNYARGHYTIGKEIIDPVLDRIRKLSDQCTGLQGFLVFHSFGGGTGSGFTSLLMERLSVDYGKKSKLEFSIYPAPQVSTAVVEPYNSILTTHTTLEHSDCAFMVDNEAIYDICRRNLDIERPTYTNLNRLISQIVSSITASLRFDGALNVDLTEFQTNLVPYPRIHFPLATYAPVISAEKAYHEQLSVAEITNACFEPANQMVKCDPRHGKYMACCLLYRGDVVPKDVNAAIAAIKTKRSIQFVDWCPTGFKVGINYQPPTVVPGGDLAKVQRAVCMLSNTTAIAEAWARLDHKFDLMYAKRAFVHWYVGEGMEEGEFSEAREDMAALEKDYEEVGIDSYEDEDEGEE
UniProt Q3MHM5: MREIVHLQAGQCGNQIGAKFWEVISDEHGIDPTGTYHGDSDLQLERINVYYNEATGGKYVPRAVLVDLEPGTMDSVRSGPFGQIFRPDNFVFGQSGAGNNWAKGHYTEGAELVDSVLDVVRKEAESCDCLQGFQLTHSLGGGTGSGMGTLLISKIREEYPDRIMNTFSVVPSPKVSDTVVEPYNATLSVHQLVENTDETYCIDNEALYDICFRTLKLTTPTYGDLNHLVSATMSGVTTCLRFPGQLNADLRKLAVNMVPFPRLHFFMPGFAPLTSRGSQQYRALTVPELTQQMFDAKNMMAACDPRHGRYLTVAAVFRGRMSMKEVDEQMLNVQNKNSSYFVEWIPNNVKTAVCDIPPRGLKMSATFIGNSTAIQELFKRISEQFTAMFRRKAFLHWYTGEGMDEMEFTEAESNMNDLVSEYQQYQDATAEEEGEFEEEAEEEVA
UniProt P28741: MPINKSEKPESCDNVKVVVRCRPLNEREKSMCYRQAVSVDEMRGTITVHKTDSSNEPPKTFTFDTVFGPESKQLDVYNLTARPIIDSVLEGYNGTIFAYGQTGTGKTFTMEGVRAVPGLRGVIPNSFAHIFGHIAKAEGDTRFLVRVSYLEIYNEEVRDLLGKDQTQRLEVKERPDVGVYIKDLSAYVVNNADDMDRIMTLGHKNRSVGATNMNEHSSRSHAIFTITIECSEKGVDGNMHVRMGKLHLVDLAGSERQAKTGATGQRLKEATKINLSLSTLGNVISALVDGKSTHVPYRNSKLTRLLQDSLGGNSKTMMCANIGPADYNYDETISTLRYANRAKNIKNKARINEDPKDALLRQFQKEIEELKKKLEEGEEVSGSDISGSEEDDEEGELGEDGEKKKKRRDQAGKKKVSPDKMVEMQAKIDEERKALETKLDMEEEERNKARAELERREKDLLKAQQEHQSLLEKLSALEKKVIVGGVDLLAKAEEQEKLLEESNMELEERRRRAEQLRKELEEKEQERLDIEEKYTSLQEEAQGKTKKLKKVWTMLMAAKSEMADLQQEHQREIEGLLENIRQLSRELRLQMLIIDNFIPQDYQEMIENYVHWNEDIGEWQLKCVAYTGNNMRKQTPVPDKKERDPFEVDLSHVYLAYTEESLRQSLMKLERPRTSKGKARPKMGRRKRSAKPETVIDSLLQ

Target: microtubules from purified bovine brain tubulin (Taxol-stabilized) (bovine) (UniProt P81948+Q3MHM5)
Assay: photoaffinity radiolabelling of preformed microtubule–kinesin complexes; 10 μM tubulin (microtubules) + 5 μM kinesin dimer, with or without 1 mM Mg-AMPPNP, ATPase buffer (20 mM HEPES pH 7.2) with 40 μM paclitaxel, 10 μM [3H]AziPm ± 400 μM propofol; UV 350 nm, SDS-PAGE, scintillation counting of the bands; both purified

Row | Substance | binding
1 | heterodimeric kinesin-2 KIF3AB (mouse KIF3A-AHD with KIF3B-BHD) (from UniProt P28741 1-376; Q61771 1-371) (complex) | binds
2 | heterodimeric kinesin-2 KIF3AC (mouse KIF3A-EB1 with KIF3C-EB1) (from UniProt P28741 1-374; O35066 1-396) (complex) | binds
